The values that follow come from patent publication US20210340217A1, “NOVEL PEPTIDES AND COMBINATION OF PEPTIDES FOR USE IN IMMUNOTHERAPY AGAINST OVARIAN CANCER AND OTHER CANCERS” (Immatics Biotechnologies GmbH, priority 2017, published 2021).

The subject of the data set is ovarian cancer tissue samples. Description: Identification of tumor associated peptides presented on the cell surface (HLA immunoprecipitation, LC-MS); presentation across tumor types. Set-up: species or system human. As to conditions: tumor types on which the peptide was found presented (HLA immunoprecipitation, LC-MS); abbreviations in table footnote.
With “2 (TLLKALLEI; listed as Homo sapiens) [compound 2]”, the “Peptide Presentation on tumor types” value is given as “BRCA, CCC, CRC, GBC, GC, HNSCC, MEL, NHL, NSCLC, OSCAR, PACA, PRCA, RCC, SCLC, UEC”. Take “509 (GRGPGGVSW; listed as Homo sapiens) [compound 509]”: the “Peptide Presentation on tumor types” value is reported as “NSCLC”. Take “192 (YEFKFPNRL; listed as Homo sapiens) [compound 192]”: the “Peptide Presentation on tumor types” value is recorded as “BRCA, HCC, NSCLC, OSCAR, UEC”. With “611 (LTVAEVQKLLGPHVEGL; listed as Homo sapiens) [compound 611]” the entry was “NSCLC”; with “686 (VRGSLLSEADVRALGGL; listed as Homo sapiens) [compound 686]”, “NSCLC”. As for “81 (VYNHTTRPL; listed as Homo sapiens) [compound 81]”, the “Peptide Presentation on tumor types” value was “OSCAR”. For the substance “330 (FPFVTGSTEM; listed as Homo sapiens) [compound 330]”, the “Peptide Presentation on tumor types” value was “UEC”. On to “27 (VLYGPAGLGK; listed as Homo sapiens) [compound 27]”, for which the “Peptide Presentation on tumor types” value is listed as “HCC, HNSCC, NSCLC, OSCAR, PACA, SCLC, UBC, UEC”. In the case of “618 (VAEVQKLLGPHVEG; listed as Homo sapiens) [compound 618]”, the “Peptide Presentation on tumor types” value is “NSCLC”. Consider “10 (RYSDSVGRVSF; listed as Homo sapiens) [compound 10]”, for which the “Peptide Presentation on tumor types” value was “BRCA, CRC, GBC, GC, NSCLC, SCLC, UBC, UEC”. Take “262 (RSRLNPLVQR; listed as Homo sapiens) [compound 262]”: the “Peptide Presentation on tumor types” value is listed as “HNSCC, NSCLC”.

Regarding “630 (ALRGLLPVLGQPIIRSIPQ; listed as Homo sapiens) [compound 630]”, the “Peptide Presentation on tumor types” value was “NSCLC”.

On to “544 (LRNPSIQKL; listed as Homo sapiens) [compound 544]”, for which the “Peptide Presentation on tumor types” value was “GBM”.

With “410 (SEDPSKLEA; listed as Homo sapiens) [compound 410]”, the “Peptide Presentation on tumor types” value is “BRCA, HNSCC, NSCLC, OSCAR, SCLC, UEC”. Take “417 (AEHFSMIRA; listed as Homo sapiens) [compound 417]”: the “Peptide Presentation on tumor types” value is “AML, BRCA, CRC, GBM, GC, HNSCC, NHL, NSCLC, OSCAR, PACA, PRCA, RCC, UEC”.

For “141 (SPMTSLLTSGL; listed as Homo sapiens) [compound 141]”, the “Peptide Presentation on tumor types” value is recorded as “UEC”. For the substance “174 (AEATARLNVF; listed as Homo sapiens) [compound 174]”, the “Peptide Presentation on tumor types” value is reported as “NSCLC”. Next, “620 (EVQKLLGPHVEG; listed as Homo sapiens) [compound 620]”: “NSCLC”; “57 (QESDLRLFL; listed as Homo sapiens) [compound 57]”: “BRCA, CLL, CRC, GC, GEJC, HNSCC, NHL, NSCLC, PACA, UBC, UEC”; “593 (GEVAPDAKSFVLNLG; listed as Homo sapiens) [compound 593]”: “NSCLC, RCC”. “75 (KVVSVLYNV; listed as Homo sapiens) [compound 75]”: the “Peptide Presentation on tumor types” value was “BRCA, UEC”.

For the substance “228 (RLWDWVPLA; listed as Homo sapiens) [compound 228]”, the “Peptide Presentation on tumor types” value is “AML, NHL”. On to “281 (RAKELEATF; listed as Homo sapiens) [compound 281]”, for which the “Peptide Presentation on tumor types” value is reported as “CLL, GC, NSCLC”. With “651 (LPVLGQPIIRSIPQGIVAA; listed as Homo sapiens) [compound 651]”, the “Peptide Presentation on tumor types” value was “NSCLC”. Regarding “355 (SPLVTSHIM; listed as Homo sapiens) [compound 355]”, the “Peptide Presentation on tumor types” value is “UEC”. With “322 (SPDPSKHLL; listed as Homo sapiens) [compound 322]” the entry was “NHL, NSCLC, PRCA, RCC”; with “224 (SLPRFQVTL; listed as Homo sapiens) [compound 224]”, “BRCA, HCC, NHL, NSCLC, OSCAR, UBC, UEC”; with “628 (DALRGLLPVLGQPIIRSIPQ; listed as Homo sapiens) [compound 628]”, “NSCLC”. Turning to “117 (APRLLLLAVL; listed as Homo sapiens) [compound 117]”, the “Peptide Presentation on tumor types” value is listed as “BRCA, CRC, HNSCC, MEL, NSCLC, OSCAR, PRCA, RCC, SCLC, UBC, UEC”. With “277 (TTALKTTSR; listed as Homo sapiens) [compound 277]” the entry was “NSCLC”; with “257 (VTADHSHVF; listed as Homo sapiens) [compound 257]”, “UEC”. On to “235 (SAIETSAVL; listed as Homo sapiens) [compound 235]”, for which the “Peptide Presentation on tumor types” value is “NSCLC, UEC”. Turning to “507 (TSIFSGQSL; listed as Homo sapiens) [compound 507]”, the “Peptide Presentation on tumor types” value is reported as “UEC”.

With “325 (GPRNAQRVL; listed as Homo sapiens) [compound 325]”, the “Peptide Presentation on tumor types” value is recorded as “CRC, GBC, NHL, NSCLC”. Next, “455 (AAAANAQVY; listed as Homo sapiens) [compound 455]”: “BRCA, UEC”; “35 (FPDNQRPAL; listed as Homo sapiens) [compound 35]”: “BRCA, CRC, GBC, MEL, NSCLC, PACA, UBC, UEC”.

Turning to “259 (KTLELRVAY; listed as Homo sapiens) [compound 259]”, the “Peptide Presentation on tumor types” value was “GBC, HNSCC”. Regarding “12 (KYEKIFEML; listed as Homo sapiens) [compound 12]”, the “Peptide Presentation on tumor types” value is listed as “AML, NSCLC”.

On to “730 (LPGRFVAESAEVL; listed as Homo sapiens) [compound 730]”, for which the “Peptide Presentation on tumor types” value was “NSCLC”. Take “188 (AEFAKKQPWW; listed as Homo sapiens) [compound 188]”: the “Peptide Presentation on tumor types” value is “CCC, CLL, CRC, MEL, NHL, NSCLC”.

As to “488 (RSFSLGVPR; listed as Homo sapiens) [compound 488]”, the “Peptide Presentation on tumor types” value is reported as “AML, CLL, GC, HCC, HNSCC, NHL, NSCLC, PRCA, SCLC, UEC”. Turning to “116 (VLLDEGAMLLY; listed as Homo sapiens) [compound 116]”, the “Peptide Presentation on tumor types” value is on record as “NSCLC, PACA”. For the substance “518 (TSDFPTITV; listed as Homo sapiens) [compound 518]”, the “Peptide Presentation on tumor types” value is “PACA”. Turning to “425 (SEVPLPMAI; listed as Homo sapiens) [compound 425]”, the “Peptide Presentation on tumor types” value is “NSCLC, UEC”. For the substance “295 (YPLRGSSIFGL; listed as Homo sapiens) [compound 295]”, the “Peptide Presentation on tumor types” value was “UEC”. Next, “697 (GSLLSEADVRALG; listed as Homo sapiens) [compound 697]”: “NSCLC”; “637 (ALRGLLPVLGQPIIR; listed as Homo sapiens) [compound 637]”: “NSCLC”.

For the substance “598 (AESLFREALSNKVDEL; listed as Homo sapiens) [compound 598]”, the “Peptide Presentation on tumor types” value was “NSCLC”.

As to “256 (RTEEVLLTFK; listed as Homo sapiens) [compound 256]”, the “Peptide Presentation on tumor types” value is given as “RCC, SCLC, UEC”. With “444 (KLSQKGYSW; listed as Homo sapiens) [compound 444]” the entry was “BRCA, CCC, CRC, GBM, HCC, HNSCC, MEL, NHL, NSCLC, OSCAR, PACA, PRCA, SCLC, UBC”.

For “633 (LRGLLPVLGQPIIRSIPQ; listed as Homo sapiens) [compound 633]”, the “Peptide Presentation on tumor types” value is reported as “NSCLC”. For the substance “179 (REAGDEFEL; listed as Homo sapiens) [compound 179]”, the “Peptide Presentation on tumor types” value is listed as “CCC, NSCLC, SCLC”. As to “28 (KTYETNLEIKK; listed as Homo sapiens) [compound 28]”, the “Peptide Presentation on tumor types” value is “NSCLC, UBC”.

Turning to “594 (VRGEVAPDAKSFVLN; listed as Homo sapiens) [compound 594]”, the “Peptide Presentation on tumor types” value is given as “NSCLC, RCC”. As for “127 (APRAGSQVV; listed as Homo sapiens) [compound 127]”, the “Peptide Presentation on tumor types” value is listed as “AML, BRCA, CRC, GBM, HCC, HNSCC, MEL, NSCLC, OSCAR, PACA, PRCA, RCC, SCLC, UBC, UEC”. For “458 (TDTLIHLM; listed as Homo sapiens) [compound 458]”, the “Peptide Presentation on tumor types” value is “UEC”. As for “260 (GTNTVILEY; listed as Homo sapiens) [compound 260]”, the “Peptide Presentation on tumor types” value is given as “MEL, PACA, UEC”. With “607 (LTVAEVQKLLGPHVEGLKAEE; listed as Homo sapiens) [compound 607]” the entry was “NSCLC”; with “550 (RRFKEPWFL; listed as Homo sapiens) [compound 550]”, “BRCA, HCC, MEL, NSCLC, PRCA, SCLC, UBC, UEC”; with “291 (ETIRSVGYY; listed as Homo sapiens) [compound 291]”, “GBM, NSCLC, UBC”. Take “472 (MRLLVAPL; listed as Homo sapiens) [compound 472]”: the “Peptide Presentation on tumor types” value is listed as “SCLC, UEC”.

For the substance “251 (KQRQVLIFF; listed as Homo sapiens) [compound 251]”, the “Peptide Presentation on tumor types” value is “GBM, NSCLC, OSCAR, PACA, RCC”.

Regarding “467 (MQMQERDTL; listed as Homo sapiens) [compound 467]”, the “Peptide Presentation on tumor types” value is on record as “GEJC, HNSCC, NHL, NSCLC, OSCAR”. As for “15 (VYHDDKQPTF; listed as Homo sapiens) [compound 15]”, the “Peptide Presentation on tumor types” value is reported as “GBM, GC, NSCLC, OSCAR, UEC”. Take “101 (RVFTSSIKTK; listed as Homo sapiens) [compound 101]”: the “Peptide Presentation on tumor types” value is “NSCLC, PACA, UEC”. With “216 (IMFDDAIERA; listed as Homo sapiens) [compound 216]” the entry was “UEC”; with “635 (ALRGLLPVLGQPIIRS; listed as Homo sapiens) [compound 635]”, “NSCLC”.

For “300 (IPMAAVKQAL; listed as Homo sapiens) [compound 300]”, the “Peptide Presentation on tumor types” value is “AML, BRCA, CLL, CRC, GC, HCC, HNSCC, MEL, NSCLC, OSCAR, PACA, RCC, UEC”.
